The whole screen tested about 1,300 compounds, of which about 110 (8.5%) were called active. Rule as the data show it: active = inhibition above about 6.5%; inactive = the rest. Only a part is listed here, and it is no random draw.
Assay: GFP fluorescence inhibitors and quenchers, artefact control for Rin1-Abl interaction inhibitor project, biochemical (AID 602125);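 also: ABL1-eGFP fusion protein alone without its partner RIN1-SBP; 0% = protein with vehicle and 100% = wells lacking protein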
Conditions: inhibitors/quenchers counterscreen, at 6.75 µM, active compounds read high

| Structure (SMILES) | inhibition |
| --- | --- |
| CSCCC(c1nnnn1C(C)(C)C)N1CCC(n2c(=O)[nH]c3ccccc32)CC1 (stereo unspecified) | inactive: -1.5% |
